PubChem BioAssay AID1259254 – NCATS | 2017

- Purpose: 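Gene knock-downs that lead to re-replication, shown by excess G2 DNA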 (primary screen)
- System: human HCT116 colorectal cancer cells
- Knock-down reagent: single siRNA against human genes
- Time to read-out: 3 days
- Read-out: 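Imaged Hoechst DNA stain sorts each cell into a cycle phase by DNA amount; per plate, G2 fraction set to 0% for non-targeting and 100% for GMNN siRNA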
- Direction: G2 robust z-score and G2 cells, % of GMNN control: higher = more G2 cells, more excess DNA replication; raw share of cells in G2: higher = larger share of cells with G2 DNA content
- Hit rule: 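An siRNA counts as active if its G2 robust z-score lies at least 5 MADs above the screen median; here such calls match roughly 38% of GMNN control or more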
The deposit covers about 59,000 reagents; below is a part drawn at random. Of all reagents, about 1,550 (2.6%) got an active call. 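G2 share is only a proxy for re-replication; each gene was hit by three separate siRNAs, and active genes were retested.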 Raw values are not corrected between plates. The numbers tell different reagents against one gene apart. No sequences are given here. Not given: the amount of reagent.

gene | reagent no. | G2 robust z-score | G2 cells, % of GMNN control | raw share of cells in G2 (%) | Outcome
KCNK2 (potassium two pore domain channel subfamily K member 2) | 1 | 1.77 | 15.4 | 10.9 | inactive
KCNK2 (potassium two pore domain channel subfamily K member 2) | 2 | 0.197 | 4.36 | 6.26 | inactive
KCNK2 (potassium two pore domain channel subfamily K member 2) | 3 | -0.63 | -1.47 | 3.8 | inactive
MRPS28 (mitochondrial ribosomal protein S28) | 1 | -0.615 | -1.36 | 5.55 | inactive
MRPS28 (mitochondrial ribosomal protein S28) | 2 | -0.948 | -3.71 | 2.96 | inactive
MRPS28 (mitochondrial ribosomal protein S28) | 3 | -0.491 | -0.491 | 3.83 | inactive
NFXL1 (nuclear transcription factor, X-box binding like 1) | 1 | 2.4 | 19.8 | 9.92 | inactive
NFXL1 (nuclear transcription factor, X-box binding like 1) | 2 | -0.435 | -0.0959 | 3.13 | inactive
NFXL1 (nuclear transcription factor, X-box binding like 1) | 3 | -0.747 | -2.29 | 2.72 | inactive
PPARD (peroxisome proliferator activated receptor delta) | 1 | 5.96 | 44.9 | 20.8 | active
PPARD (peroxisome proliferator activated receptor delta) | 2 | 0.0374 | 3.23 | 5.65 | inactive
PPARD (peroxisome proliferator activated receptor delta) | 3 | -0.636 | -1.51 | 3.46 | inactive
CRYGC (crystallin gamma C) | 1 | 0.458 | 6.19 | 5.95 | inactive
CRYGC (crystallin gamma C) | 2 | -0.385 | 0.261 | 5.42 | inactive
CRYGC (crystallin gamma C) | 3 | -0.818 | -2.79 | 3.07 | inactive

Sorted by “G2 cells, % of GMNN control” (descending): 3 of the entries above
gene | reagent no. | G2 robust z-score | G2 cells, % of GMNN control | raw share of cells in G2 (%) | Outcome
PPARD (peroxisome proliferator activated receptor delta) | 1 | 5.96 | 44.9 | 20.8 | active
NFXL1 (nuclear transcription factor, X-box binding like 1) | 2 | -0.435 | -0.0959 | 3.13 | inactive
NFXL1 (nuclear transcription factor, X-box binding like 1) | 3 | -0.747 | -2.29 | 2.72 | inactive

Additional results:
gene | reagent no. | G2 robust z-score | G2 cells, % of GMNN control | raw share of cells in G2 (%) | Outcome
SLC9A3 | 1 | 0.0291 | 3.17 | 5.63 | inactive
SLC9A3 | 2 | -0.272 | 1.05 | 4.31 | inactive
SLC9A3 | 3 | 0.000833 | 2.97 | 6.68 | inactive
ESYT2 (extended synaptotagmin 2) | 1 | -0.635 | -1.5 | 3.75 | inactive
ESYT2 (extended synaptotagmin 2) | 2 | -0.452 | -0.211 | 4.36 | inactive
ESYT2 (extended synaptotagmin 2) | 3 | -0.977 | -3.91 | 1.79 | inactive
GNS (glucosamine (N-acetyl)-6-sulfatase) | 1 | -0.372 | 0.353 | 5.37 | inactive
GNS (glucosamine (N-acetyl)-6-sulfatase) | 2 | -0.756 | -2.35 | 4.37 | inactive
GNS (glucosamine (N-acetyl)-6-sulfatase) | 3 | -0.587 | -1.16 | 3.24 | inactive
PPIG (peptidylprolyl isomerase G) | 1 | 0.0811 | 3.54 | 6.14 | inactive
PPIG (peptidylprolyl isomerase G) | 2 | 0.337 | 5.34 | 7.14 | inactive
PPIG (peptidylprolyl isomerase G) | 3 | -0.061 | 2.54 | 5.62 | inactive
IFI16 (interferon gamma inducible protein 16) | 1 | -0.247 | 1.23 | 3.95 | inactive
IFI16 (interferon gamma inducible protein 16) | 2 | -0.604 | -1.28 | 4.25 | inactive
IFI16 (interferon gamma inducible protein 16) | 3 | -0.375 | 0.332 | 3.23 | inactive
